# From PubChem BioAssay AID2685 (National Center for Advancing Translational Sciences (NCATS), 2010)
# The list shows a part of the results. Shown are side measurements of this screen, not its main read-out; they come without a call. Compounds called inactive in the main read-out are mostly missing here. Words in brackets tell the shape of the fitted curve; partial curves, single points and poor fits give uncertain potencies.
# Assay: qHTS Assay for Lipid Storage Modulators in Drosophila S3 Cells;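 as to cell number change: cells counted by Cell Tracker Red CMTPX staining in the red channel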
# Settings: BODIPY lipid droplet fluorescence, 18-24 h; for cell number change: measured here: cell count max response, cells fed with added oleic acid
# Procedure, shortened: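 Drosophila S3 cells got compounds at several concentrations plus oleic acid (400 uM solution). Laser-scanning cytometry with 488 nm excitation read lipid droplets at 500-530 nm and cells at 575-640 nm. Percent activity was relative to 20 uM Triacsin C.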
# [1] = measured here: cell number channel AC50, cells fed with added oleic acid
# [2] = measured here: lipid fluorescence (Fed channel) AC50, cells fed with added oleic acid
Structure (SMILES),cell number change,AC50 [1],AC50 [2]
Cc1ccc(N=Cc2c(O)c3ccccc3n(C)c2=O)cc1,-52.4%,"29.1 µM [falling, single point]","32.6 µM [falling, single point]"
CC1(C)C2CCC1(C)C(OCC[N+](C)(C)CC(=O)OC1CCCCC1)C2 (stereo unspecified),-45.4%,"18.4 µM [falling, single point]","18.4 µM [falling, single point]"
CCOc1ccc(S(=O)(=O)n2nc(C)cc2C)cc1,15.2%,,"6.51 µM [falling, single point]"
CC1(C)CC(NC(=O)C(C)(C)Oc2ccc(Cl)cc2)CC(C)(C)N1,11.1%,,"0.0082 µM [falling, full curve, poor fit]"
COc1ccccc1CNC(=O)CCCc1ccccc1,,"4.11 µM [rising, partial curve, poor fit]",
CCc1ccc(NC(=O)CSc2nnc(-c3cccs3)n2CC)cc1,,"3.66 µM [rising, partial curve]",
CN(C)c1cccc(C(=O)OC(C(=O)Nc2ccc(Cl)cc2C(F)(F)F)c2ccccc2)c1 (stereo unspecified),19.6%,,"3.66 µM [rising, single point]"
C=C(C)C1CC=C(C)/C(=N/NC(=O)CCC(=O)Nc2ccccc2Cl)C1 (stereo unspecified),16.7%,,
CCOC(=O)Cn1cc(/C=N/NC(=O)CC#N)c2ccccc21,15.5%,,"1.84 µM [rising, partial curve]"
COc1ccccc1-n1c(C)cc(C=O)c1C,-36.4%,"0.731 µM [falling, full curve]",
COc1ccc([C@H]2CC(=O)C=C(c3ccc4c(c3)OCO4)C2)cc1OC,-8.96%,,"6.51 µM [falling, single point]"
CC(C)Sc1ccccc1C(=O)Nc1ccc2c(c1)n(C)c(=O)n2C,2.46%,,
O=[N+]([O-])c1c(NCCO)cc(N2CCCCCC2)c2nonc12,-8.45%,,"6.51 µM [rising, single point]"
CCC(=O)c1cn(CCOc2ccccc2OC)c2ccccc12,-25.5%,,"0.651 µM [rising, single point]"
COc1ccccc1NC(=S)N1CCc2cc(OC)c(OC)cc2C1,53.1%,"7.31 µM [rising, partial curve]","5.8 µM [rising, full curve]"
Cc1ccc(-n2c(SCC(=O)NCc3ccco3)nc3c(sc4ccccc43)c2=O)cc1,,"0.651 µM [rising, full curve, poor fit]",
O=C(COc1ccc(/C=N/NC(=O)C(=O)N2CCCCCC2)cc1)Nc1ccccc1Cl,-4.77%,,"0.058 µM [falling, full curve, poor fit]"
O=C(Nn1cnnc1)c1ccc(Cl)cc1,-16.1%,,"0.164 µM [falling, full curve, poor fit]"
O=C(NC1CCCCC1)C(c1ccccn1)N(C(=O)c1csnn1)c1ccccc1F (stereo unspecified),13.9%,,
O=C(CCC(=O)Nc1ccc(F)cc1)N/N=C/c1ccccc1O,19.3%,,"0.092 µM [falling, full curve, poor fit]"
COc1cc(OC)cc(C(=O)Nc2nc(-c3ccccc3)c(-c3ccccc3)o2)c1,16.7%,,"5.8 µM [falling, partial curve]"

Structure (SMILES),cell number change,AC50 [1],AC50 [2]
O=C(NCc1ccccc1CN1CCCC1)c1cc2ccccc2o1,-2.89%,,
CC1=CC(C/C(C)=C/COc2ccc3ccc(=O)oc3c2)OC1=O (stereo unspecified),3.42%,,"0.0164 µM [rising, full curve, poor fit]"
FC(F)(F)Oc1ccc(-c2cn3cccnc3n2)cc1,,"0.58 µM [falling, full curve]","0.651 µM [falling, full curve]"
N#CCc1c(C#N)c(N)nc(Nc2ccccc2)c1C#N,-15.5%,,"1.3 µM [rising, full curve]"
CCn1c(CNS(=O)(=O)c2ccc(Cl)cc2)n[nH]c1=S,-106%,"18.4 µM [falling, partial curve, poor fit]","6.51 µM [falling, single point]"
COc1ccccc1OCCNC(=O)Cc1ccc(S(=O)(=O)N2CCOCC2)s1,-9.62%,,"29.1 µM [rising, partial curve, poor fit]"
Cc1ccc(S(=O)(=O)CC(=O)N(CCCN2CCOCC2)c2nc3c(F)cccc3s2)cc1,-29.7%,,
O=C(NC1CC1)c1ccc(C2SCC(=O)N2Cc2ccccc2)cc1 (stereo unspecified),-33.5%,"32.6 µM [falling, single point]","29.1 µM [falling, single point]"
Cc1ccc(S(=O)(=O)Nc2ccc3c(c2)nc(CCN2CCN(c4ccccn4)CC2)n3C)cc1,,,"20.6 µM [falling, single point]"
Cc1ccc(Nc2nc(C(=O)N3CCC(C(=O)NCc4ccccc4)CC3)cs2)cc1,-23.6%,,
COc1ccc(C(=O)COC(=O)c2cc([N+](=O)[O-])ccc2N2CCOCC2)c(OC)c1,156%,"11.6 µM [rising, partial curve]",
Cc1nn2cc(-c3ccc(Cl)cc3)cnc2c1Br,-70.8%,"29.1 µM [falling, single point]","0.0651 µM [falling, full curve, poor fit]"
CC(C)(C)NC(=O)COc1ccc2oc3c(c2c1)CCCC3,-1.59%,,
CN(c1ccc(F)cc1)S(=O)(=O)c1ccc(Cl)c(C(=O)Nc2ccncc2)c1,,,"6.51 µM [rising, single point]"
Cc1ccccc1N1CC(=O)N(c2ccccc2C)CC1=O,12.9%,,
CCOC(=O)c1c(-c2ccc(C)o2)csc1NC(=O)CN1CCCCC1,33.9%,"0.0116 µM [rising, full curve]",
O=C(NCc1ccco1)C1CCCN(S(=O)(=O)c2cccc3nsnc23)C1 (stereo unspecified),,,"6.51 µM [rising, partial curve, poor fit]"
CCc1nc(NCCCn2ccnc2)c2oc3ccccc3c2n1,1.43%,,"0.259 µM [rising, full curve]"
CN(C(=O)CN1C(=O)S/C(=C\c2ccccc2F)C1=O)C1CCS(=O)(=O)C1 (stereo unspecified),71.8%,"29.1 µM [rising, single point]",
CN(CC(=O)N1CCCC1)S(=O)(=O)c1ccc(Cl)cc1,4.75%,,
O=C(CSc1nnc(-c2cccnc2)n1Cc1ccco1)N1CCc2ccccc21,-15.7%,,"0.146 µM [rising, full curve, poor fit]"

Structure (SMILES),cell number change,AC50 [1],AC50 [2]
Cc1cc(OCC(=O)N(C(C)C)C(C)C)cc(C)c1Br,-18.1%,"0.517 µM [rising, single point]","29.1 µM [rising, single point]"
Cc1cccc(N2CCN(C(=O)CCn3c(=S)[nH]c4cc5c(cc4c3=O)OCO5)CC2C)c1 (stereo unspecified),99.6%,"14.6 µM [rising, partial curve]","0.58 µM [falling, single point]"
CSc1nc2nccc(/C=C\c3ccccc3)n2n1,-78.9%,"18.4 µM [falling, single point]","18.4 µM [falling, single point]"
O=C(CCCCl)NC(=S)Nc1cc(C(F)(F)F)ccc1N1CCOCC1,,"3.66 µM [falling, single point]",
S=C(NC12CC3CC(CC(C3)C1)C2)N1CCCC1,,"0.092 µM [rising, full curve, poor fit]",
CC(C)(C)OC(=O)[C@H](Cc1ccccc1)NC(=O)c1nc[nH]c1C(=O)NCCCCCN,15%,,"20.6 µM [rising, partial curve, poor fit]"
Cc1c(NC(=O)CSc2nnnn2Cc2ccccc2)c(=O)n(-c2ccccc2)n1C,30.6%,"5.17 µM [rising, partial curve, poor fit]",
Cc1ccccc1OCCn1cc(C(=O)C(=O)N2CCOCC2)c2ccccc21,17.8%,,
C=CCSC1=N/C(=C\c2sccc2C)C(=O)S1,28.8%,,"29.1 µM [rising, single point]"
CN(C)/C=C(\C#N)C(=O)c1cccc(Oc2ccc(Br)cc2)c1,-26.1%,,"20.6 µM [falling, single point]"
C#CCSc1ncc(-c2ccccc2)cn1,65.8%,"18.4 µM [rising, single point]","18.4 µM [rising, single point]"
O=C(COc1ccc(F)cc1)Nc1ccc(-n2cnnn2)cc1,35%,"2.06 µM [rising, partial curve, poor fit]","2.06 µM [rising, single point]"
C=CCn1c(COc2ccc(CC)cc2)nnc1SCC(=O)NC1CCS(=O)(=O)C1 (stereo unspecified),-18.2%,"1.3 µM [falling, full curve]","3.66 µM [falling, full curve]"
COc1ccc(NS(=O)(=O)c2ccc(S(=O)(=O)N3CCOCC3)cc2)cc1,75%,"16.4 µM [rising, single point]",
CSc1ccc(Cl)c(C(=O)Nc2ccc(C)cn2)c1,26.7%,,"6.51 µM [falling, single point]"
Cc1nccnc1Sc1ccccc1,15.8%,,"13 µM [falling, single point]"
COc1nccnc1NS(=O)(=O)c1ccc(NC(=S)NC(=O)/C=C/c2ccccc2)cc1,-3.53%,"6.51 µM [rising, single point]",
CCCOc1ccc(C(=O)N2CCCC2C(=O)O)cc1 (stereo unspecified),-12.3%,,"0.116 µM [falling, full curve, poor fit]"
Cc1csc(NC(=O)c2ccc[nH]c2=O)n1,13.8%,,"29.1 µM [rising, single point]"
